Measurements as given in PMC7819943, “Rice protein-binding microarrays: a tool to detect cis-acting elements near promoter regions in rice”.
Some of the results follow.

By UniProt entry, the sequences of proteins in these tests, tags left out.
UniProt Q0JBA9, entry or part of it: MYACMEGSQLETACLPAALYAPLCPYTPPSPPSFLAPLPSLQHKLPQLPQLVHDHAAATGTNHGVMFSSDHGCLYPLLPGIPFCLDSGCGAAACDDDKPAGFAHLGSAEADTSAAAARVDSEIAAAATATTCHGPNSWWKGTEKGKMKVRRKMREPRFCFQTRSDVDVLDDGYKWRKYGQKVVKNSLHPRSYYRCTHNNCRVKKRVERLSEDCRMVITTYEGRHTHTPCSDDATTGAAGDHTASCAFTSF

Molecular target: OsWRKY34 (Oryza sativa, UniProt Q0JBA9 1-250)
Test: protein-binding microarray (RPBM); PBS, 2% BSA, 51.3 ng/ul salmon testes DNA, 50 uM zinc acetate, 200 nM TF, 25 C, 1 h; high values mean tight binding
Settings: protein: recombinant; tags: N-terminal polyhistidine and DsRed monomer fusion (pET32a); label: CyDye5-dUTP incorporated in the synthesized complementary strand; 3' TTTTT single-stranded linker to array surface; dsDNA, one strand shown
Summary of the method: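 In PBS with 2% BSA, salmon testes DNA and 50 µM zinc acetate, 200 nM protein was incubated on a custom Agilent array at 25 °C for 1 h and then washed off. The array had been made double-stranded by primer extension with Cy5-dUTP and blocked with 2% BSA. The proteins were transcription factors fused N-terminally to polyhistidine and DsRed, expressed in E. coli BL21-CodonPlus and purified on Ni–NTA. The binding signal is per-feature fluorescence intensity (arbitrary units) from an Axon 4000B scanner.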

Q: “ACTAGTATTTCTCTCTCTCTCTCTTTTTTTTCTGCGATGACGGAGTCACCTAGTGCAG” was tested. Which binding signal did it give?
A: 9230 fluorescence intensity (a.u.)

Q: How did the binding signal turn out when “TGTTTTTTTTCCTCTTTCGCTTGATTGTCCTATTGGATTTCGGAGTCACCTAGTGCAG” was run?
A: 8720 fluorescence intensity (a.u.)

Q: With “ACGCCGTTGATTTTTTTAAGCGTATTTGATCGTTCGTCTTCGGAGTCACCTAGTGCAG” as the sequence, how does the binding signal read?
A: 8580 fluorescence intensity (a.u.)

Q: For “TCTGTCTCCAACTCCTCGCCATGTCGTGTCGGCTGCTGTCCGGAGTCACCTAGTGCAG”, which binding signal is on record?
A: 8780 fluorescence intensity (a.u.)

Q: How did the binding signal turn out when “TCTTGCAGCCTTCCCTGTTGACGCGGTTGATGTTCTTCTACGGAGTCACCTAGTGCAG” was run?
A: 8280 fluorescence intensity (a.u.)

Q: For “TCCAATTTCATCCAACTCAGCTATAGCTTTCTTTGCACCTCGGAGTCACCTAGTGCAG”, which binding signal is on record?
A: 11000 fluorescence intensity (a.u.)

Q: Which binding signal does the source give for “CATTGCCGTTAACTTCTTCACGTTCACAACTCACTGGGGTCGGAGTCACCTAGTGCAG” here?
A: 9020 fluorescence intensity (a.u.)

Q: For “GTAGGTTGGTTTTTTATGGGACGGAGGGAGTAGCCATTTACGGAGTCACCTAGTGCAG”, which binding signal is on record?
A: 10200 fluorescence intensity (a.u.)

Q: “ATTGATAGTCCCATTTTTCTGTGTATATAATCGACTAACTCGGAGTCACCTAGTGCAG” was tested. Which binding signal did it give?
A: 8020 fluorescence intensity (a.u.)

Q: “GTCGTTGATTTTTTTAAAAATGTTTAACCGTTCGTTTTATCGGAGTCACCTAGTGCAG” was tested. Which binding signal did it give?
A: 8170 fluorescence intensity (a.u.)

Q: With “GGTTATACGAACCACACAAGCATCCAGCATGCAGTTCATCCGGAGTCACCTAGTGCAG” as the sequence, how does the binding signal read?
A: 8780 fluorescence intensity (a.u.)

Q: How did the binding signal turn out when “ATAGCTCTCGGCGAGGAGGTTTTGGTGGTGGTGGGAGATGCGGAGTCACCTAGTGCAG” was run?
A: 8690 fluorescence intensity (a.u.)

Q: How did the binding signal turn out when “CTCACTTGCATCTTTCCAATATCTTAGTCATTCATTAATACGGAGTCACCTAGTGCAG” was run?
A: 8520 fluorescence intensity (a.u.)

Q: With “AGGAATGGACATCTACTCACTGTCACCACAGCTCACGAGACGGAGTCACCTAGTGCAG” as the sequence, how does the binding signal read?
A: 8050 fluorescence intensity (a.u.)

Q: How did the binding signal turn out when “TCCGAACAGATATTTTTGTGGTTCATTGCTATGGATTTCTCGGAGTCACCTAGTGCAG” was run?
A: 8190 fluorescence intensity (a.u.)

Q: For “ACGTCCGGCTTTTGCATCTTCCTCGGCGACTCCCTCATCTCGGAGTCACCTAGTGCAG”, which binding signal is on record?
A: 8660 fluorescence intensity (a.u.)

Q: “TCACGCTCATCCTCTTCCTCATCTCTCTTTGCGGTCTTTACGGAGTCACCTAGTGCAG” was tested. Which binding signal did it give?
A: 11000 fluorescence intensity (a.u.)

Q: Which binding signal does the source give for “CCACTAAAATTTTTATCCCTTGATAGCTTATAGTTTACTACGGAGTCACCTAGTGCAG” here?
A: 8150 fluorescence intensity (a.u.)

Q: With “GTACTTCACCTCGTTTGTCCTCTTGCATAGCGATTTCTTTCGGAGTCACCTAGTGCAG” as the sequence, how does the binding signal read?
A: 11900 fluorescence intensity (a.u.)

Q: How did the binding signal turn out when “ATAATCCTGAGACTAATCCAACCTGCACGCACGCACTACTCGGAGTCACCTAGTGCAG” was run?
A: 8290 fluorescence intensity (a.u.)

Q: “ACCTCGTTTTGCGTATCTTTCCAATCTTCTCTATCTCCTTCGGAGTCACCTAGTGCAG” was tested. Which binding signal did it give?
A: 8630 fluorescence intensity (a.u.)

Q: Which binding signal does the source give for “CGGGAAGGGGAGAGGCCGTGTCGGGGAGGATAGTGGCGGCCGGAGTCACCTAGTGCAG” here?
A: 9590 fluorescence intensity (a.u.)

Q: “AGTACATCATTTCCCATTACATGTGGAGTCTCTGTCTCTGCGGAGTCACCTAGTGCAG” was tested. Which binding signal did it give?
A: 8230 fluorescence intensity (a.u.)

Q: With “CACTGCTTTGGAACCATACTACGGCTTCTCCCACTTCACTCGGAGTCACCTAGTGCAG” as the sequence, how does the binding signal read?
A: 8110 fluorescence intensity (a.u.)

Q: With “GACACATCTTAGTTTCATGAATTTGCACAAGAATTGCATGCGGAGTCACCTAGTGCAG” as the sequence, how does the binding signal read?
A: 10800 fluorescence intensity (a.u.)

Q: “CACACTCTCACTGTCCACGCTTGTCTTGGCCGCTTGACTACGGAGTCACCTAGTGCAG” was tested. Which binding signal did it give?
A: 8280 fluorescence intensity (a.u.)

Q: How did the binding signal turn out when “AATTTTTGGCAGTATATGAGCTAGATTCATATGTACATCACGGAGTCACCTAGTGCAG” was run?
A: 8180 fluorescence intensity (a.u.)

Q: Which binding signal does the source give for “AAACTTTGACTTACTTAAAACAAGTCCAAAACTGCATGTCCGGAGTCACCTAGTGCAG” here?
A: 8050 fluorescence intensity (a.u.)

Q: For “GATCAGGTGGGTTGGGTTGGACCCAGAAGGGAATATTCTCCGGAGTCACCTAGTGCAG”, which binding signal is on record?
A: 9720 fluorescence intensity (a.u.)

Q: “TCCCTCCATCCCAAAATGTTATCTTTGACGTCGTTGACTTCGGAGTCACCTAGTGCAG” was tested. Which binding signal did it give?
A: 10900 fluorescence intensity (a.u.)

Q: With “ACCCACGACTCCGCAACTCTAGCTCGGCCCCGCGTCCCGCCGGAGTCACCTAGTGCAG” as the sequence, how does the binding signal read?
A: 8260 fluorescence intensity (a.u.)

Q: “TGCTACAGTTAGTTTGTCTTTGTACTATCTCATGGTTTATCGGAGTCACCTAGTGCAG” was tested. Which binding signal did it give?
A: 11600 fluorescence intensity (a.u.)

Q: “CCACAAATTAATCCCGCATGCTCTTGGCATTTACCCACCACGGAGTCACCTAGTGCAG” was tested. Which binding signal did it give?
A: 8460 fluorescence intensity (a.u.)

Q: For “CCTCCTCCGCCGCCCGCCGCGTCCGCCACTTCCATCGGAGCGGAGTCACCTAGTGCAG”, which binding signal is on record?
A: 8030 fluorescence intensity (a.u.)

Q: Which binding signal does the source give for “TTTTTGCTGTTTTTAATGTAACTTTTTTCGAGAACATACCCGGAGTCACCTAGTGCAG” here?
A: 11100 fluorescence intensity (a.u.)

Q: “CCACCTTCGCCGCCACCACCAAGCACATCGCCGTCCTCCACGGAGTCACCTAGTGCAG” was tested. Which binding signal did it give?
A: 8160 fluorescence intensity (a.u.)

Q: “GCACCGTGGGGACTGGGGATTGCCGATTCTTTTTTTTCCTCGGAGTCACCTAGTGCAG” was tested. Which binding signal did it give?
A: 10800 fluorescence intensity (a.u.)

Q: For “GCTCCGTTAATTTTCGAAAGTTTGAATTTGATCAGGTAACCGGAGTCACCTAGTGCAG”, which binding signal is on record?
A: 8180 fluorescence intensity (a.u.)

Q: “ATTACCAAAAATCTCAACTTACATGCTGCGTACTCCATTTCGGAGTCACCTAGTGCAG” was tested. Which binding signal did it give?
A: 8590 fluorescence intensity (a.u.)

Q: “ATCCAGCACACTCTAATTCTATTTGTTCACATGTTGTTATCGGAGTCACCTAGTGCAG” was tested. Which binding signal did it give?
A: 10000 fluorescence intensity (a.u.)

Q: For “AGTAATTGACTATATTATTGAACTTGCTCTTACACACGCACGGAGTCACCTAGTGCAG”, which binding signal is on record?
A: 8730 fluorescence intensity (a.u.)

Q: “CCACGAGCTATACCAAGTACTCTCTTTCTCACTCGATTGACGGAGTCACCTAGTGCAG” was tested. Which binding signal did it give?
A: 9080 fluorescence intensity (a.u.)

Q: How did the binding signal turn out when “TATGTTTTGTATGGTGTGGTTCAACATTTGAACTATATAGCGGAGTCACCTAGTGCAG” was run?
A: 8930 fluorescence intensity (a.u.)

Q: Which binding signal does the source give for “CACGTTTCCATCTCCCTTGATGCAATTCACTAAACACAAACGGAGTCACCTAGTGCAG” here?
A: 8100 fluorescence intensity (a.u.)

Q: “AACTTTGTTCATTTCTTTTCAATTATTATTTGTGCTCTGACGGAGTCACCTAGTGCAG” was tested. Which binding signal did it give?
A: 10200 fluorescence intensity (a.u.)

Q: For “CCCTTCGTCGCCGCTACTGCAGTGGCTACCCAAATCTCGCCGGAGTCACCTAGTGCAG”, which binding signal is on record?
A: 8060 fluorescence intensity (a.u.)

Q: Which binding signal does the source give for “TTACTTCTACTCTTATTCATCATCCTCATCAAGCCCAATTCGGAGTCACCTAGTGCAG” here?
A: 8240 fluorescence intensity (a.u.)

Q: How did the binding signal turn out when “ACCAACGAACGGACGCTGTCATGTCACCTCTCTTAATCTTCGGAGTCACCTAGTGCAG” was run?
A: 8610 fluorescence intensity (a.u.)

Q: “GGTCTTGTCTGTTGTGTTAGCCATTTGTACCAACTCATGACGGAGTCACCTAGTGCAG” was tested. Which binding signal did it give?
A: 12000 fluorescence intensity (a.u.)

Q: Which binding signal does the source give for “ACAAACCTATTTGTCTCTTGATCAACTCAACTGCTAAATTCGGAGTCACCTAGTGCAG” here?
A: 8370 fluorescence intensity (a.u.)

Q: How did the binding signal turn out when “GCGCGGGCCCCACCCACCTCTTGGCCCATTCCCCAAGAAACGGAGTCACCTAGTGCAG” was run?
A: 8480 fluorescence intensity (a.u.)

Q: Which binding signal does the source give for “TTGGTGGACTTTTCGCTCGTTTGGTTGGCCAACCGAAAAACGGAGTCACCTAGTGCAG” here?
A: 8180 fluorescence intensity (a.u.)

Q: With “TCATATCTCTTCTCTACCAATCATATTTATTCTTCATCTACGGAGTCACCTAGTGCAG” as the sequence, how does the binding signal read?
A: 9600 fluorescence intensity (a.u.)

Q: How did the binding signal turn out when “TGTCGCGAATTAGTCCAAGATTATGGATGGGTTTTTATTACGGAGTCACCTAGTGCAG” was run?
A: 9460 fluorescence intensity (a.u.)
